The campaign covered roughly 400,000 compounds. About 13,000 (3.2%) were called active. This list was built around the results that the source calls inconclusive (neither active nor inactive); the mix of calls is not that of the screen. Calls follow the shape of the dose curve; as a rule, active = well fitted cell-killing curve with a large enough effect; inconclusive = small, poorly fitted or top-dose-only effect, or effect the other way; inactive = flat fitted curve, though single readings scatter. Potencies of inconclusive entries are doubtful fits and often do not repeat.
test: qHTS assay for MDR1-selective chemotherapeutics: Primary screen using the drug-selected MDR subline cells KB-V1; conditions: KB-V1 MDR cells viability, CellTiter-Glo, 72 h; activity change, negative = cytotoxicity: at 46.1 µM (top of the series); also: nearly all actives have a fitted effect of over 60% in size
Method in brief: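 Cells of the MDR subline KB-V1 are plated, dosed with compound at multiple concentrations, and incubated 72 h at 37 degrees C; CellTiter-Glo is then added and luminescence read after 10 min.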
% is scaled to controls: 0 for no effect and ±100 for the full control effect; potency is read from the fitted curve at half-maximal effect.

With `Cc1cc(C)cc(NC(=O)Cn2c(-c3ccccc3Cl)nc3ccccc32)c1` as the molecule, how does the Potency read?
The Potency was inconclusive: 3.66 µM [cytotoxic, partial curve, poor fit].

Which Potency does the source give for `COc1cccc(NC(=O)CN(C)C(=O)c2cn(-c3ccccc3)nc2-c2cccnc2)c1` here?
The Potency was inconclusive: 0.58 µM [rising, full curve, poor fit].

With `CC(C)(C)[C@@H]1CCC(=O)N(CC[C@H](Sc2ccc(Br)cc2)c2ccccc2)CC1` as the molecule, how does the Potency read?
The Potency was inconclusive: 18.4 µM [cytotoxic, single point].

With `O=C(C1CCCCC1)N1CCCC(c2nc(-c3ccc(F)cc3)no2)C1` (configuration not stated) as the molecule, how does the Potency read?
Its Potency is active: 20.6 µM.

Which Potency does the source give for `CCn1c(=O)cc(SCC(=O)N2CCN(c3ccccn3)CC2)c2ccccc21` here?
The Potency was inconclusive: 14.6 µM [cytotoxic, partial curve].

With `Clc1ccc(-c2nn3c(-c4cc(-c5ccccc5)n[nH]4)nnc3s2)cc1` as the molecule, how does the Potency read?
Its Potency is inconclusive: 20.6 µM [rising, partial curve, poor fit].

With `O=C(CSc1ncn[nH]1)N(C1CCCCC1)C1CCCCC1` as the molecule, how does the Potency read?
The Potency was inconclusive: 8.2 µM [cytotoxic, partial curve].

With `COc1ccc(-c2c3c(=O)n(C)c(=O)n(C)c3c3n2-c2ccccc2NC3c2ccccc2OC)cc1` (configuration not stated) as the molecule, how does the Potency read?
The Potency was inconclusive: 25.9 µM [cytotoxic, single point].

For `COc1ccc(NC(=O)CSc2nc3ccccc3n2CC(=O)NCc2ccc(F)cc2)cc1`, which “activity change, negative = cytotoxicity” value is on record?
The value was inactive: 0%.

Which Potency does the source give for `CCOc1ccc(S(=O)(=O)N2CCCC(C(=O)NC3CCCC3)C2)cc1` (configuration not stated) here?
The Potency was inconclusive: 4.61 µM [cytotoxic, partial curve, poor fit].

For `Cc1cc(C)cc(NC(=O)N(CCC#N)Cc2cccs2)c1`, which Potency is on record?
Its Potency is inconclusive: 16.4 µM [cytotoxic, partial curve, poor fit].

Which Potency does the source give for `CCOc1ccc(S(=O)(=O)NCCC(=O)N2CCCCCCC2)cc1` here?
Its Potency is inconclusive: 25.9 µM [cytotoxic, single point].

For `CC(=O)c1cccc(NC(=S)NC(=O)c2ccc(Br)cc2)c1`, which Potency is on record?
The Potency was inconclusive: 18.4 µM [cytotoxic, single point].

With `Cc1c(CN(C)C(=O)/C=C/c2ccc([N+](=O)[O-])cc2)cnn1C` as the molecule, how does the Potency read?
The Potency was inconclusive: 16.4 µM [cytotoxic, partial curve, poor fit].

Which Potency does the source give for `CCC1Oc2ccc(C)cc2N(CC(=O)NCCC2=CCCCC2)C1=O` (configuration not stated) here?
Its Potency is inconclusive: 16.4 µM [cytotoxic, single point].

For `COc1ccc(S(=O)(=O)N2CCC(C(=O)Nc3ccc(Oc4ccccc4)cc3)CC2)cc1OC`, which “activity change, negative = cytotoxicity” value is on record?
Its value is inactive: 9.51%.

For `COc1ccccc1NC(=S)NC(=O)CCc1ccccc1`, which Potency is on record?
Its Potency is inconclusive: 29.1 µM [cytotoxic, single point].

For `CCOc1ccc(NC(=O)CSc2nnc3c(C)cc4ccccc4n23)cc1`, which “activity change, negative = cytotoxicity” value is on record?
The value was inactive: 5.84%.

With `O=S(=O)(c1ccc(OCC(O)CN2CCN(c3ccccc3O)CC2)cc1)N1CCOCC1` (configuration not stated) as the molecule, how does the Potency read?
Its Potency is inconclusive: 16.4 µM [cytotoxic, partial curve].

Which Potency does the source give for `O=C(NC(=S)Nc1ccccc1)c1cncc(C#Cc2ccccc2)c1` here?
The Potency was inconclusive: 20.6 µM [rising, partial curve].

For `Cc1ccc(S(=O)(=O)N(Cc2ccc(Cl)cc2)c2ccccc2C(=O)NCc2cccnc2)cc1`, which Potency is on record?
The Potency was inconclusive: 18.4 µM [cytotoxic, partial curve, poor fit].

With `O=C(CN1CCOCC1)NN=Cc1ccc([N+](=O)[O-])o1` as the molecule, how does the Potency read?
Its Potency is inconclusive: 29.1 µM [cytotoxic, single point].

Which Potency does the source give for `CC(SC1=NCCN1S(=O)(=O)c1ccc(F)cc1)c1ccccc1` (configuration not stated) here?
The Potency was inconclusive: 16.4 µM [cytotoxic, single point].

Which Potency does the source give for `O=C(c1ccc(-c2ccccc2)cc1)N1CCC(C(=O)N2CCCC2)CC1` here?
Its Potency is inconclusive: 3.26 µM [cytotoxic, full curve].

With `CCCc1nc2ccccc2c(C(=O)OCC(=O)NC2CC2)c1CC` as the molecule, how does the Potency read?
Its Potency is inconclusive: 20.6 µM [cytotoxic, single point].

Which Potency does the source give for `O=Cc1ccc(-c2ccc(F)cc2)o1` here?
The Potency was inconclusive: 29.1 µM [rising, single point].

For `O=Nc1ccc(O)c2ncccc12`, which Potency is on record?
The Potency was active: 23.1 µM.

Which Potency does the source give for `Nc1c2c(nc3ccc(Br)cc13)N(c1ccccc1)CC2` here?
The Potency was inconclusive: 18.4 µM [cytotoxic, single point].

Which activity change, negative = cytotoxicity does the source give for `COc1cccc2c1C(=O)/C(=C\c1ccc(N(C)C)cc1)C2` here?
Its activity change, negative = cytotoxicity is inconclusive: -34%.

Which “activity change, negative = cytotoxicity” value does the source give for `CCn1c(SCc2nc3ccccc3c(=O)[nH]2)nnc1-c1ccncc1` here?
The value was inactive: 6.88%.

With `COc1ccc(CCNC(=O)COC(=O)c2cccs2)cc1` as the molecule, how does the Potency read?
The Potency was inconclusive: 29.1 µM [rising, single point].

For `CCOC(=O)C1=C(CN2CCN(c3ccc(Cl)cc3)CC2)NC(=O)NC1c1ccc(F)cc1` (configuration not stated), which Potency is on record?
Its Potency is inconclusive: 29.1 µM [cytotoxic, single point].

With `Cc1cn([C@H]2C[C@H](O)[C@@H](/C=C/C(=O)NCCc3cccnc3)O2)c(=O)[nH]c1=O` as the molecule, how does the “activity change, negative = cytotoxicity” value read?
The value was inactive: -5.15%.

Which Potency does the source give for `NC(=O)COc1ccc(-c2noc(COc3ccc(Cl)cc3)n2)cc1` here?
The Potency was inconclusive: 29.1 µM [cytotoxic, single point].

For `CCCn1c(NC(=O)c2ccc([N+](=O)[O-])o2)nc2ccccc21`, which Potency is on record?
Its Potency is inconclusive: 16.4 µM [cytotoxic, single point].

Which “activity change, negative = cytotoxicity” value does the source give for `CCOC(=O)C1C(=O)OC(C)(C)C1C(C)C(=O)c1ccc(C)cc1C` (configuration not stated) here?
Its value is inactive: -6.58%.

Which “activity change, negative = cytotoxicity” value does the source give for `COc1cccc2c1Oc1ncccc1N(C(=O)CCC(=O)NCc1ccc(OC(C)C)cc1)C2` here?
The value was inactive: -15.9%.

For `NS(=O)(=O)c1ccc(NCc2ccccc2OCc2ccc(F)cc2)cc1`, which Potency is on record?
The Potency was inconclusive: 29.1 µM [cytotoxic, partial curve, poor fit].

Which Potency does the source give for `Cc1ccc(OCc2nnc(SCC(=O)NC3CCCCC3)n2C)cc1` here?
The Potency was inconclusive: 8.2 µM [cytotoxic, partial curve].

Which Potency does the source give for `Cc1ccc(OCC(O)Cn2c3ccccc3c3ccccc32)cc1` (configuration not stated) here?
Its Potency is inconclusive: 14.6 µM [cytotoxic, partial curve].

With `Cc1nc(SCC(=O)NC2CCCC2)c2oc3ccccc3c2n1` as the molecule, how does the Potency read?
Its Potency is inconclusive: 23.1 µM [cytotoxic, partial curve, poor fit].

For `COc1ccc2c(c1)CC(C(=O)Nc1c(C)cc(C)cc1C)CO2` (configuration not stated), which “activity change, negative = cytotoxicity” value is on record?
The value was inactive: -1.53%.

With `CN1C(=O)C(c2nnc(Nc3cccc4ccccc34)s2)C2CC1(C)Oc1ccccc12` (configuration not stated) as the molecule, how does the Potency read?
Its Potency is inconclusive: 10.3 µM [cytotoxic, partial curve, poor fit].

For `CN1C2C(Br)CCCCN2c2ccc(F)cc2S1(=O)=O` (configuration not stated), which “activity change, negative = cytotoxicity” value is on record?
Its value is inactive: -9.14%.

For `COc1cc(OC)c(NC(C)C(=O)NCc2ccccc2)cc1Cl` (configuration not stated), which Potency is on record?
Its Potency is inconclusive: 29.1 µM [rising, single point].

For `Cc1cc2ccccn2c1C(=O)c1ccccc1F`, which Potency is on record?
The Potency was inconclusive: 29.1 µM [cytotoxic, single point].

With `O=C(O)CN1C(=O)/C(=C\c2ccccc2OCc2ccc(Cl)cc2Cl)SC1=S` as the molecule, how does the Potency read?
The Potency was inconclusive: 32.6 µM [rising, single point].

For `O=C(Nc1cccc(F)c1)C1CCN(c2nc3ccccc3nc2C(F)(F)F)CC1`, which Potency is on record?
The Potency was inconclusive: 32.6 µM [cytotoxic, single point].

With `Cc1[nH]c2ccccc2c1C1(O)C(=O)Nc2ccc(Cl)cc21` (configuration not stated) as the molecule, how does the Potency read?
Its Potency is inconclusive: 9.2 µM [rising, partial curve].

With `Cn1c(=O)n(C)c2cc(NS(=O)(=O)c3ccc(Cl)cc3)c(NCc3ccccc3)cc21` as the molecule, how does the “activity change, negative = cytotoxicity” value read?
The value was inactive: -15.2%.

For `COc1ccc2c(c1)nc(SCC(O)c1ccccc1)n2C` (configuration not stated), which Potency is on record?
Its Potency is inconclusive: 32.6 µM [cytotoxic, single point].

With `Nc1ccc(Oc2ccc(N)c([N+](=O)[O-])c2)cc1[N+](=O)[O-]` as the molecule, how does the “activity change, negative = cytotoxicity” value read?
Its value is inactive: -2.26%.

Which “activity change, negative = cytotoxicity” value does the source give for `CCOC(=O)C(C)NC(=O)CCc1nnc2ccc(N3CCC(C)CC3)nn12` (configuration not stated) here?
The value was inactive: 9.35%.

With `COCCCn1c(SCC(=O)NC(C)(C)C)nnc1-c1ccccc1` as the molecule, how does the Potency read?
The Potency was inconclusive: 13 µM [cytotoxic, partial curve].

With `COc1cc(/C=C2\SC(=Nc3ccccc3OC)NC2=O)ccc1O` as the molecule, how does the Potency read?
The Potency was inconclusive: 29.1 µM [cytotoxic, single point].

For `CCOC(=O)Nc1nc(-c2ccc(F)cc2F)cs1`, which Potency is on record?
Its Potency is inconclusive: 18.4 µM [cytotoxic, single point].

For `COc1cc2c(cc1OC)CN(S(=O)(=O)c1cccs1)CC2`, which Potency is on record?
The Potency was active: 18.4 µM.

Which Potency does the source give for `CCCCOc1ccc(C(=O)N/N=C/c2ccc(OCCN3CCCCC3)c(OC)c2)cc1` here?
The Potency was inconclusive: 20.6 µM [cytotoxic, single point].

Which “activity change, negative = cytotoxicity” value does the source give for `CC(C)CC(=O)N1CCN(c2ccc(NC(=O)c3ccco3)cc2)CC1` here?
Its value is inactive: -17.8%.

With `COc1cc(OC)cc(C(=O)N(Cc2ccco2)Cc2cccs2)c1` as the molecule, how does the “activity change, negative = cytotoxicity” value read?
The value was inactive: -3.3%.

With `CCC(=O)N/N=C(\C)CC(=O)Nc1ccc(F)cc1` as the molecule, how does the Potency read?
The Potency was inconclusive: 29.1 µM [cytotoxic, single point].

With `OCC1(Cc2ccccc2)CCN(Cc2cc3ccccc3o2)CC1` as the molecule, how does the Potency read?
Its Potency is inconclusive: 25.9 µM [cytotoxic, single point].

Which Potency does the source give for `C=C1C[C@H]2[C@@H]3C=C(C)C4=CC(=O)CC[C@]4(C)[C@H]3CC[C@]2(C)[C@@]1(OC(C)=O)C(C)=O` here?
Its Potency is inconclusive: 11.6 µM [cytotoxic, partial curve, poor fit].

Which Potency does the source give for `Nc1ccc(CNC(=O)c2cc3cc(Cl)ccc3nc2N)cc1` here?
Its Potency is inconclusive: 9.2 µM [cytotoxic, partial curve].

For `O=C(CN1C(=O)NC2(CCCC2)C1=O)Nc1cc(S(=O)(=O)N2CCCCC2)ccc1Cl`, which Potency is on record?
Its Potency is inconclusive: 18.4 µM [cytotoxic, partial curve].

With `COc1ccccc1CNc1ccc(N2CCCCC2)cc1` as the molecule, how does the Potency read?
Its Potency is inconclusive: 20.6 µM [cytotoxic, single point].

For `CCOc1ccc(-c2cccc(NS(=O)(=O)c3cccc([N+](=O)[O-])c3)c2)nn1`, which “activity change, negative = cytotoxicity” value is on record?
The value was inactive: 4.48%.
